Test results as given in ChEMBL document CHEMBL2074017, “Distinct characteristics of organic cation transporters, OCT1 and OCT2, in the basolateral membrane of renal tubules” (Pharm Res, 2001).
pIC50: −log10 of the molar value.

Columns and labels:
[1] = target: T1, Solute carrier family 22 member 1 (Rattus norvegicus, UniProt Q63089); format: functional, cell-based, MDCK
T1 sequence (Q63089 whole entry): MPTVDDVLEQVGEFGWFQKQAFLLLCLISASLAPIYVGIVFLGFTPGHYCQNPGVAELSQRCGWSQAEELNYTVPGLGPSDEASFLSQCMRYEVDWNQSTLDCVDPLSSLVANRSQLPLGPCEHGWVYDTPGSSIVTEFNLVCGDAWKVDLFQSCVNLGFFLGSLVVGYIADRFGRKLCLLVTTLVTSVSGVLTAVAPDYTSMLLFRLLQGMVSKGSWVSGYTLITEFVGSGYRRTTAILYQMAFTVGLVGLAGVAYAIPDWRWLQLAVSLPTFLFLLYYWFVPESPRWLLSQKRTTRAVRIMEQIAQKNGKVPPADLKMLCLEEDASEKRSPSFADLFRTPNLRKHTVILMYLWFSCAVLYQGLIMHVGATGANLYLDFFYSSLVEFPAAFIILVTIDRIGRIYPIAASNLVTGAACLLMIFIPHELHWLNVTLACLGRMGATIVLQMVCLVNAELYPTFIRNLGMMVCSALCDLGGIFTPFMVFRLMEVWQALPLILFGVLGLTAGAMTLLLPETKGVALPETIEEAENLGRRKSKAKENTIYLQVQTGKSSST

[2] = target: T2, Solute carrier family 22 member 2 (Rattus norvegicus, UniProt Q9R0W2); format: functional, cell-based, MDCK
T2 sequence (Q9R0W2 whole entry): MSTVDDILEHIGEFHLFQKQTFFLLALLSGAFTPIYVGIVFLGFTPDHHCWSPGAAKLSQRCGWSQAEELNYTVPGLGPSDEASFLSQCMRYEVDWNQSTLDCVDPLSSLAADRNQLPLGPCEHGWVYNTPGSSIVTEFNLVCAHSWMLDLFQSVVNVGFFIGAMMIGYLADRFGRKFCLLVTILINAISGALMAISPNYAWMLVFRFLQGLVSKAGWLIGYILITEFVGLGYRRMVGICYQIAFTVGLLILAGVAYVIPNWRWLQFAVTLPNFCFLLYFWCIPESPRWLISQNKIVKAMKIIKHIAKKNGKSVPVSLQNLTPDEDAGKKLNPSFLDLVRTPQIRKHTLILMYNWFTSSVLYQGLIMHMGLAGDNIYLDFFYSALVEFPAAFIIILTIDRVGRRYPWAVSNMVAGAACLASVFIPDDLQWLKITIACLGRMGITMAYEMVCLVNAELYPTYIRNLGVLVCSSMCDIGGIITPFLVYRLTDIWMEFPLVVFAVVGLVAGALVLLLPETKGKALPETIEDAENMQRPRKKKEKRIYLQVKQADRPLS

pIC50 [1]: 4.62
pIC50 [2]: 4.49
Compound: CN(C)CCOC(c1ccccc1)c1ccccc1 [DIPHENHYDRAMINE]
